Assay results as given in article PMC2953525, “Subtle Alterations in PCNA-Partner Interactions Severely Impair DNA Replication and Repair” (PLoS Biology, 2010).
Positions count from the first letter of the chain named. Results are given in words; binding and its absence hold for the method and conditions named. Some entries that bind do so weakly or less than the wild type. Values belong to the binder of their own block, whether it stands above or below them.

How the values were obtained:
Test in all cases: two-hybrid; pAD-GAL4-PCNA WT or mutant (called bait) and pBD-GAL4-partner (called prey) in strain YRG2; 10-fold serial dilutions spotted on SC-Leu-Trp-His plates, 30°C, 3 d; growth similar to WT PCNA is denoted 1
[1] = molecular target: T1, pol30-Msh6E2 (yeast, UniProt P15873 1-258, IDCL DIDADFLKIEEL to DYDRDMLKISEL)
T1 construct: PCNA (POL30), yeast; source: yeast two-hybrid fusion (pAD-GAL4, strain YRG2)
T1 sequence: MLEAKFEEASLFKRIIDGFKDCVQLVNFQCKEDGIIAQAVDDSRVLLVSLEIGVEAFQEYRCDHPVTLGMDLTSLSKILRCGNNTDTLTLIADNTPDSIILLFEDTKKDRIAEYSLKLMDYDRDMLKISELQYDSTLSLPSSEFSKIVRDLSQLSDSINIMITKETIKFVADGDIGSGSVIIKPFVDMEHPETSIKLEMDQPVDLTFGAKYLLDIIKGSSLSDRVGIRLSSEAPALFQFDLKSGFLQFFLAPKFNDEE

[2] = molecular target: T2, pol30-Msh6E6 (yeast, UniProt P15873 1-258, IDCL DIDADFLKIEEL to DYDKDLLKIIEL)
T2 construct: PCNA (POL30), yeast; source: yeast two-hybrid fusion (pAD-GAL4, strain YRG2)
T2 sequence: T1 sequence with R123K, M125L, S129I

[3] = molecular target: T3, pol30-Rad27L1 (yeast, UniProt P15873 1-258, IDCL DIDADFLKIEEL to D––VDILKIGEL)
T3 construct: PCNA (POL30), yeast; two residues after the first aspartic acid of the IDCL are deleted; source: yeast two-hybrid fusion (pAD-GAL4, strain YRG2)
T3 sequence: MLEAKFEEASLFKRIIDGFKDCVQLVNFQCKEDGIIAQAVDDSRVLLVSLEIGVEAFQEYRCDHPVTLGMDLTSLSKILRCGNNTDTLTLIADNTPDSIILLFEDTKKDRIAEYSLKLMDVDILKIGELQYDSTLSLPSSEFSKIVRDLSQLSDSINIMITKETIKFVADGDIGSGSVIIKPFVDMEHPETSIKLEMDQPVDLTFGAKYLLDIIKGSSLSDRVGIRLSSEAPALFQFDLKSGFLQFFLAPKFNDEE

[4] = molecular target: T4, pol30-Pol32E9 (yeast, UniProt P15873 1-258, IDCL DIDADFLKIEEL to DNDVDSLKIIEL)
T4 construct: PCNA (POL30), yeast; source: yeast two-hybrid fusion (pAD-GAL4, strain YRG2)
T4 sequence: T1 sequence with Y121N, R123V, M125S, S129I

[5] = molecular target: T5, pol30-Ung1E3 (yeast, UniProt P15873 1-258, IDCL DIDADFLKIEEL to DFDYDELKIEEL)
T5 construct: PCNA (POL30), yeast; source: yeast two-hybrid fusion (pAD-GAL4, strain YRG2)
T5 sequence: T1 sequence with Y121F, R123Y, M125E, S129E

- binding [1]: binds
- binding [2]: binds
- binding [3]: binds
- binding [4]: binds
B1: Ung1 (natural protein, yeast, UniProt P12887 1-359, looked up)
chain: MWCMRRLPTNSVMTVARKRKQTTIEDFFGTKKSTNEAPNKKGKSGATFMTITNGAAIKTETKAVAKEANTDKYPANSNAKDVYSKNLSSNLRTLLSLELETIDDSWFPHLMDEFKKPYFVKLKQFVTKEQADHTVFPPAKDIYSWTRLTPFNKVKVVIIGQDPYHNFNQAHGLAFSVKPPTPAPPSLKNIYKELKQEYPDFVEDNKVGDLTHWASQGVLLLNTSLTVRAHNANSHSKHGWETFTKRVVQLLIQDREADGKSLVFLLWGNNAIKLVESLLGSTSVGSGSKYPNIMVMKSVHPSPLSASRGFFGTNHFKMINDWLYNTRGEKMIDWSVVPGTSLREVQEANARLESESKDP
notes: Ung1 (base excision repair), yeast; also called pBD-Ung1; source: yeast two-hybrid fusion (pBD-GAL4, strain YRG2)

- binding [5]: binds
- binding [3]: binds
- binding [4]: binds
B2: Msh6 (natural protein, yeast, UniProt Q03834 1-1242, looked up)
chain: MAPATPKTSKTAHFENGSTSSQKKMKQSSLLSFFSKQVPSGTPSKKVQKPTPATLENTATDKITKNPQGGKTGKLFVDVDEDNDLTIAEETVSTVRSDIMHSQEPQSDTMLNSNTTEPKSTTTDEDLSSSQSRRNHKRRVNYAESDDDDSDTTFTAKRKKGKVVDSESDEDEYLPDKNDGDEDDDIADDKEDIKGELAEDSGDDDDLISLAETTSKKKFSYNTSHSSSPFTRNISRDNSKKKSRPNQAPSRSYNPSHSQPSATSKSSKFNKQNEERYQWLVDERDAQRRPKSDPEYDPRTLYIPSSAWNKFTPFEKQYWEIKSKMWDCIVFFKKGKFFELYEKDALLANALFDLKIAGGGRANMQLAGIPEMSFEYWAAQFIQMGYKVAKVDQRESMLAKEMREGSKGIVKRELQCILTSGTLTDGDMLHSDLATFCLAIREEPGNFYNETQLDSSTIVQKLNTKIFGAAFIDTATGELQMLEFEDDSECTKLDTLMSQVRPMEVVMERNNLSTLANKIVKFNSAPNAIFNEVKAGEEFYDCDKTYAEIISSEYFSTEEDWPEVLKSYYDTGKKVGFSAFGGLLYYLKWLKLDKNLISMKNIKEYDFVKSQHSMVLDGITLQNLEIFSNSFDGSDKGTLFKLFNRAITPMGKRMMKKWLMHPLLRKNDIESRLDSVDSLLQDITLREQLEITFSKLPDLERMLARIHSRTIKVKDFEKVITAFETIIELQDSLKNNDLKGDVSKYISSFPEGLVEAVKSWTNAFERQKAINENIIVPQRGFDIEFDKSMDRIQELEDELMEILMTYRKQFKCSNIQYKDSGKEIYTIEIPISATKNVPSNWVQMAANKTYKRYYSDEVRALARSMAEAKEIHKTLEEDLKNRLCQKFDAHYNTIWMPTIQAISNIDCLLAITRTSEYLGAPSCRPTIVDEVDSKTNTQLNGFLKFKSLRHPCFNLGATTAKDFIPNDIELGKEQPRLGLLTGANAAGKSTILRMACIAVIMAQMGCYVPCESAVLTPIDRIMTRLGANDNIMQGKSTFFVELAETKKILDMATNRSLLVVDELGRGGSSSDGFAIAESVLHHVATHIQSLGFFATHYGTLASSFKHHPQVRPLKMSILVDEATRNVTFLYKMLEGQSEGSFGMHVASMCGISKEIIDNAQIAADNLEHTSRLVKERDLAANNLNGEVVSVPGGLQSDFVRIAYGDGLKNTKLGSGEGVLNYDWNIKRNVLKSLFSIIDDLQS
notes: Msh6 (mismatch repair), yeast; also called pBD-Msh6; source: yeast two-hybrid fusion (pBD-GAL4, strain YRG2)
